Reference: publication doi:10.1101/2020.12.31.424961
Where two headings read alike, the source gives them in different places. No constants are given. Whether binding was seen depends on the method and setting. In cells and extracts the contact can be indirect. Some results given as binding are weak or reduced against the parent protein; the word gives no strength.

Key:
Test in all cases: pull-down
[1] = molecular target: HCoV-229E N protein, SFB-tagged (HCoV-229E) (UniProt P15130)
[2] = molecular target: HCoV-HKU1 N protein, SFB-tagged (HCoV-HKU1) (UniProt Q5MQC6)
[3] = molecular target: HCoV-NL63 N protein, SFB-tagged (HCoV-NL63) (UniProt Q6Q1R8)
[4] = molecular target: SARS-CoV-1 NSP1, SFB-tagged (SARS-CoV-1) (UniProt P0C6X7)
[5] = molecular target: HCoV-229E N protein, SFB-tagged (HCoV-229E) (UniProt P15130); remark: listed apart in the source
[6] = molecular target: HCoV-HKU1 N protein, SFB-tagged (HCoV-HKU1) (UniProt Q5MQC6); remark: listed apart in the source
[7] = molecular target: HCoV-NL63 N protein, SFB-tagged (HCoV-NL63) (UniProt Q6Q1R8); remark: listed apart in the source
[8] = molecular target: HCoV-OC43 N protein, SFB-tagged (HCoV-OC43) (UniProt P33469)
[9] = molecular target: SARS-CoV-2 ORF3a, SFB-tagged (SARS-CoV-2) (UniProt P0DTC3)

Molecule: Ras-GTPase-activating protein-binding protein 1 (from UniProt Q13283 1-466)
- binding [1]: binds
- binding [2]: binds
- binding [3]: binds

B1: PYCR1 (protein, UniProt P32322 1-319)
chain: MSVGFIGAGQLAFALAKGFTAAGVLAAHKIMASSPDMDLATVSALRKMGVKLTPHNKETVQHSDVLFLAVKPHIIPFILDEIGADIEDRHIVVSCAAGVTISSIEKKLSAFRPAPRVIRCMTNTPVVVREGATVYATGTHAQVEDGRLMEQLLSSVGFCTEVEEDLIDAVTGLSGSGPAYAFTALDALADGGVKMGLPRRLAVRLGAQALLGAAKMLLHSEQHPGQLKDNVSSPGGATIHALHVLESGGFRSLLINAVEASCIRTRELQSMADQEQVSPAAIKKTILDKVKLDSPAGTALSPSGHTKLLPRSLAPAGKD
- binding [4]: binds

B2: PYCR2 (protein, UniProt Q96C36 1-320)
chain: MSVGFIGAGQLAYALARGFTAAGILSAHKIIASSPEMNLPTVSALRKMGVNLTRSNKETVKHSDVLFLAVKPHIIPFILDEIGADVQARHIVVSCAAGVTISSVEKKLMAFQPAPKVIRCMTNTPVVVQEGATVYATGTHALVEDGQLLEQLMSSVGFCTEVEEDLIDAVTGLSGSGPAYAFMALDALADGGVKMGLPRRLAIQLGAQALLGAAKMLLDSEQHPCQLKDNVCSPGGATIHALHFLESGGFRSLLINAVEASCIRTRELQSMADQEKISPAALKKTLLDRVKLESPTVSTLTPSSPGKLLTRSLALGGKKD
- binding [4]: binds

B3: Ras-GTPase-activating protein-binding protein 2 (protein, UniProt Q9UN86 1-482)
chain: MVMEKPSPLLVGREFVRQYYTLLNKAPEYLHRFYGRNSSYVHGGVDASGKPQEAVYGQNDIHHKVLSLNFSECHTKIRHVDAHATLSDGVVVQVMGLLSNSGQPERKFMQTFVLAPEGSVPNKFYVHNDMFRYEDEVFGDSEPELDEESEDEVEEEQEERQPSPEPVQENANSGYYEAHPVTNGIEEPLEESSHEPEPEPESETKTEELKPQVEEKNLEELEEKSTTPPPAEPVSLPQEPPKAFSWASVTSKNLPPSGTVSSSGIPPHVKAPVSQPRVEAKPEVQSQPPRVREQRPRERPGFPPRGPRPGRGDMEQNDSDNRRIIRYPDSHQLFVGNLPHDIDENELKEFFMSFGNVVELRINTKGVGGKLPNFGFVVFDDSEPVQRILIAKPIMFRGEVRLNVEEKKTRAARERETRGGGDDRRDIRRNDRGPGGPRGIVGGGMMRDRDGRGPPPRGGMAQKLGSGRGTGQMEGRFTGQRR
- binding [5]: binds
- binding [6]: binds
- binding [7]: binds
- binding [8]: binds

B4: CLCC1 (protein, UniProt Q96S66 19-551)
chain: HDDDWIDPTDMLNYDAASGTMRKSQAKYGISGEKDVSPDLSCADEISECYHKLDSLTYKIDECEKKKREDYESQSNPVFRRYLNKILIEAGKLGLPDENKGDMHYDAEIILKRETLLEIQKFLNGEDWKPGALDDALSDILINFKFHDFETWKWRFEDSFGVDPYNVLMVLLCLLCIVVLVATELWTYVRWYTQLRRVLIISFLFSLGWNWMYLYKLAFAQHQAEVAKMEPLNNVCAKKMDWTGSIWEWFRSSWTYKDDPCQKYYELLLVNPIWLVPPTKALAVTFTTFVTEPLKHIGKGTGEFIKALMKEIPALLHLPVLIIMALAILSFCYGAGKSVHVLRHIGGPESEPPQALRPRDRRRQEEIDYRPDGGAGDADFHYRGQMGPTEQGPYAKTYEGRREILRERDVDLRFQTGNKSPEVLRAFDVPDAEAREHPTVVPSHKSPVLDTKPKETGGILGEGTPKESSTESSQSAKPVSGQDTSGNTEGSPAAEKAQLKSEAAGSPDQGSTYSPARGVAGPRGQDPVSSPCG
- binding [9]: binds
